For two molecules, binding results are on record in article PMC11746146 (Nature Structural & Molecular Biology, 2024).

These are yes or no findings as the source states them, for the method shown.

Assay [1] deals with non-farnesylated GBP1-R48A (human) (UniProt P32455). Put plainly: SEC-MALS; GBP1-R48A and GBP1F-R48A; the nucleotide condition is not told in the legend; both purified. On the technique in general: Size exclusion chromatography separates by hydrodynamic size, large species first.
The target in assay [2] is farnesylated GBP1F-R48A (human) (UniProt P32455). The description is as above.

B1: non-farnesylated GBP1-R48A (protein, UniProt P32455 1-592)
chain: MASEIHMTGPMCLIENTNGRLMANPEALKILSAITQPMVVVAIVGLYATGKSYLMNKLAGKKKGFSLGSTVQSHTKGIWMWCVPHPKKPGHILVLLDTEGLGDVEKGDNQNDSWIFALAVLLSSTFVYNSIGTINQQAMDQLYYVTELTHRIRSKSSPDENENEVEDSADFVSFFPDFVWTLRDFSLDLEADGQPLTPDEYLTYSLKLKKGTSQKDETFNLPRLCIRKFFPKKKCFVFDRPVHRRKLAQLEKLQDEELDPEFVQQVADFCSYIFSNSKTKTLSGGIQVNGPRLESLVLTYVNAISSGDLPCMENAVLALAQIENSAAVQKAIAHYEQQMGQKVQLPTETLQELLDLHRDSEREAIEVFIRSSFKDVDHLFQKELAAQLEKKRDDFCKQNQEASSDRCSALLQVIFSPLEEEVKAGIYSKPGGYRLFVQKLQDLKKKYYEEPRKGIQAEEILQTYLKSKESMTDAILQTDQTLTEKEKEIEVERVKAESAQASAKMLQEMQRKNEQMMEQKERSYQEHLKQLTEKMENDRVQLLKEQERTLALKLQEQEQLLKEGFQKESRIMKNEIQDLQTKMRRRKACTIS
In the case of B1, in assay [1], the binding entry was “no binding”.

B2: farnesylated GBP1F-R48A (protein, UniProt P32455 1-592)
chain: MASEIHMTGPMCLIENTNGRLMANPEALKILSAITQPMVVVAIVGLYATGKSYLMNKLAGKKKGFSLGSTVQSHTKGIWMWCVPHPKKPGHILVLLDTEGLGDVEKGDNQNDSWIFALAVLLSSTFVYNSIGTINQQAMDQLYYVTELTHRIRSKSSPDENENEVEDSADFVSFFPDFVWTLRDFSLDLEADGQPLTPDEYLTYSLKLKKGTSQKDETFNLPRLCIRKFFPKKKCFVFDRPVHRRKLAQLEKLQDEELDPEFVQQVADFCSYIFSNSKTKTLSGGIQVNGPRLESLVLTYVNAISSGDLPCMENAVLALAQIENSAAVQKAIAHYEQQMGQKVQLPTETLQELLDLHRDSEREAIEVFIRSSFKDVDHLFQKELAAQLEKKRDDFCKQNQEASSDRCSALLQVIFSPLEEEVKAGIYSKPGGYRLFVQKLQDLKKKYYEEPRKGIQAEEILQTYLKSKESMTDAILQTDQTLTEKEKEIEVERVKAESAQASAKMLQEMQRKNEQMMEQKERSYQEHLKQLTEKMENDRVQLLKEQERTLALKLQEQEQLLKEGFQKESRIMKNEIQDLQTKMRRRKACTIS
modifications: C-terminal C15-farnesyl moiety (CaaX isoprenylation motif)
For the molecule B2, the binding entry in assay [2] is on record as “no binding”.
